# In PubChem BioAssay AID504444 (National Center for Advancing Translational Sciences (NCATS), 2011):
# About 7,500 (2.1%) of roughly 360,000 compounds were called active. Inconclusive results, whose numbers are uncertain, are shown with a selection of clear calls. Calls come from the whole dose curve; as a rule, active = well fitted inhibition curve with a large enough effect; inconclusive = small, poorly fitted or top-dose-only effect, or effect the other way; inactive = flat fitted curve, though single readings scatter. Potencies of inconclusive entries are doubtful fits and often do not repeat.
# Experiment: Nrf2 qHTS screen for inhibitors; note: nearly all actives have a fitted effect of over 60% in size
# Conditions: A549 ARE-Fluc reporter, luciferase luminescence, 18-24 h; activity change, negative = inhibition: at 46 µM (top of the series)
# Summary of the method: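 Two sequential reads on A549 ARE_Fluc cells exposed to compound for 18-24 h: a CellTiter-Fluor fluorescence read for viability, then a luciferase luminescence read for Nrf2/ARE activity.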
# % is set by controls: 0 for no effect and ±100 for the full control effect; potency is the fitted concentration of half-maximal effect.
Structure (SMILES),Potency,"activity change, negative = inhibition"
CCOc1cc(/C=N\Nc2ncc(F)c(N3CCOCC3)n2)ccc1Oc1nc(Cl)ncc1F,"inconclusive: 23.1 µM [falling, single point]",–
CCOc1ccc(CCNC(=O)Cn2ccc3cc(S(=O)(=O)N4CCCC4)ccc32)cc1,–,inactive: 26.8%
N#Cc1c(Nc2ccc(F)cc2)sc(C(=O)c2ccccc2)c1N,"inconclusive: 20.6 µM [falling, single point]",–
Cc1ccc(C(NC(=O)CN2C(=O)NC3(CCCC3)C2=O)c2ccccc2)cc1 (configuration not stated),"inconclusive: 8.2 µM [falling, partial curve, poor fit]",–
COc1ccc(-c2nnn(CC(=O)N(CC(=O)NC3CCCC3)c3cccc(C)c3)n2)cc1OC,"inconclusive: 7.31 µM [falling, partial curve, poor fit]",–
COc1cccc(-c2nn(C)c3sc(C(=O)NCCc4cccc(C)c4)cc23)c1,"inconclusive: 7.31 µM [falling, partial curve, poor fit]",–
c1ccc(-c2cc3nccc(-c4ccccn4)n3n2)cc1,"inconclusive: 8.2 µM [activator, partial curve]",–
COc1ccc(C)cc1NC(=O)c1c(C(=O)Nc2cccc(C)c2C)sc2nc(C)cc(=O)n12,–,inactive: -2.24%
COc1ccc(-n2c(SCC(=O)Nc3nccs3)nc3c(c2=O)SC(C)C3)cc1 (configuration not stated),"inconclusive: 29.1 µM [falling, single point]",–
[N-]=C=C1C(=S)NC(=O)[C@H]([n+]2ccccc2)[C@H]1c1ccc(Cl)cc1,–,inactive: 1.03%
COc1ccc(CCNC(=O)C2CCN(C(=O)c3ccc(C(C)(C)C)cc3)CC2)cc1OC,–,inactive: -25%
CCn1c(=O)cc(SCC(=O)Nc2cc(Cl)ccc2OC)c2ccccc21,"inconclusive: 18.4 µM [falling, single point]",–
Cc1ccc(NC(=O)C(Cc2ccccc2)NC(=O)c2ccco2)cc1 (configuration not stated),"inconclusive: 6.51 µM [falling, single point]",–
Cc1ccc(C(=O)Nc2nnc(S(=O)(=O)N(C)Cc3ccc(F)cc3)s2)cc1,"inconclusive: 10.3 µM [activator, partial curve, poor fit]",–
O=C(CCCCCN1C(=O)c2ccccc2C1=O)Nc1ccc(S(=O)(=O)N2CCCCC2)cc1,"inconclusive: 14.6 µM [falling, partial curve, poor fit]",–
O=C(CCCn1cc([N+](=O)[O-])cn1)Nc1ccc2c(c1)OCO2,"inconclusive: 1.46 µM [activator, full curve, poor fit]",–
Cc1scc(C(=O)NNC(=S)NCC2CCCO2)c1-c1ccccc1 (configuration not stated),"inconclusive: 32.6 µM [falling, single point]",–

# Part of the list above in order of molecular weight, falling:
Structure (SMILES),Potency,"activity change, negative = inhibition"
COc1ccc(CCNC(=O)C2CCN(C(=O)c3ccc(C(C)(C)C)cc3)CC2)cc1OC,–,inactive: -25%
COc1cccc(-c2nn(C)c3sc(C(=O)NCCc4cccc(C)c4)cc23)c1,"inconclusive: 7.31 µM [falling, partial curve, poor fit]",–
O=C(CCCn1cc([N+](=O)[O-])cn1)Nc1ccc2c(c1)OCO2,"inconclusive: 1.46 µM [activator, full curve, poor fit]",–
